The whole screen tested about 280,000 compounds, of which about 100 (0.036%) were called active. Listed are the inconclusive results; actives and inactives stand elsewhere. Calls follow the shape of the dose curve; as a rule, active = well fitted inhibition curve with a large enough effect in the signal ratio, with a control signal flat (not every such curve was filed as active); inconclusive = small, poorly fitted or top-dose-only effect, or effect the other way, or a change in a side signal; inactive = no such curve, though single readings can be large or run the other way; the % refers to the signal ratio. Some tests of the compounds listed are not included; inactive here does not mean inactive elsewhere.
target: Muscleblind-like protein 1 (Homo sapiens) (UniProt Q9NR56); assay: qHTS Assay for Inhibitors of MBNL1-poly(CUG) RNA binding; conditions: TR-FRET MBNL1-His/biotin-(CUG)12 binding, 665/545 ratio
Potency is read from the fitted curve at half-maximal effect.

By UniProt entry, the sequences of proteins in these tests, tags left out.
UniProt Q9NR56, whole entry: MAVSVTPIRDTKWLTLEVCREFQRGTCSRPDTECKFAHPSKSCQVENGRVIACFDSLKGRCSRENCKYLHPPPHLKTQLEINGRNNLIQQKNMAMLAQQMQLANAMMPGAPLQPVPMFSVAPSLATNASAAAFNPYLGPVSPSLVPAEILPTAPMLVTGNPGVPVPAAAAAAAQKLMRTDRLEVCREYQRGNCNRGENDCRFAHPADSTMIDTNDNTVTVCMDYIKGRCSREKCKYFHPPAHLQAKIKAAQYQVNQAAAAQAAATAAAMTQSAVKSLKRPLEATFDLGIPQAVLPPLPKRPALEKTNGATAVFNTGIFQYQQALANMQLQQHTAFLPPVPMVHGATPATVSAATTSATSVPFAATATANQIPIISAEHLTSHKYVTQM

| SMILES | Potency |
| --- | --- |
| COc1cc(C(=O)NCC2(N(C)C)CCCCC2)c([N+](=O)[O-])cc1OC | inconclusive: 3.16 µM |

From PubChem BioAssay AID2675 (National Center for Advancing Translational Sciences (NCATS), 2010)
